In all, about 320,000 compounds went through this assay and about 22,000 (6.9%) were called active. Inconclusive means that the source gave no clear call. Such entries were picked first, then a sample of the others. The call rests on the fitted dose curve; in most records, active means well fitted inhibition curve with a large enough effect; inconclusive means small, poorly fitted or top-dose-only effect, or another doubt; inactive means no such curve, though single readings can be large or run the other way. Potencies beside an inconclusive call are fits to weak or partial responses and may not hold up.
Assay: Primary qHTS for delayed death inhibitors of the malarial parasite plastid, 96 hour incubation
Settings: P. falciparum luciferase reporter growth; series mostly up to 28.7 µM
Outline: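 Infected RBCs, 2% Hct / 0.05% parasitemia final; luciferase-reporter P. falciparum; cpd 96 h, 37 C, 5% CO2; luciferase detection reagent; luminescence.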
On the % scale 0 is the no-effect control and ±100 the full control effect; potency means the concentration at half of the fitted maximal effect.

Which Potency does the source give for O=C1NN(c2ccccc2)C(=O)/C1=C\c1ccc2c(c1)OCO2 here?
The Potency was inconclusive: 14.7 µM [inhibitor, partial curve, poor fit].

Which Potency does the source give for O=C(Cc1ccc(F)cc1)OCC(=O)N1CCN(S(=O)(=O)c2ccc(Cl)cc2)CC1 here?
Its Potency is “inactive”.

Which Potency does the source give for NS(=O)(=O)c1cccc(NS(=O)(=O)c2ccc3ccccc3c2)c1 here?
The Potency was “inactive”.

For CN(C(=O)COC(=O)c1nc(Cl)ccc1Cl)C1CCS(=O)(=O)C1 (stereo not given), which Potency is on record?
Its Potency is “inactive”.

For COC(=O)c1sc(-c2ccc(C(C)(C)C)cc2)cc1NC(=O)c1ccccc1C(=O)O, which Potency is on record?
The Potency was “inactive”.

For O=C(Nc1ccc(Sc2ccc(Br)cc2)cc1)c1ccco1, which Potency is on record?
The Potency was inconclusive: 0.185 µM [inhibitor, full curve].

Which Potency does the source give for O=C(CCl)N(c1ccccc1)C1CCS(=O)(=O)C1 (stereo not given) here?
The Potency was inconclusive: 18.5 µM [inhibitor, single point].

For Cc1ccccc1OCCC(=O)N(CC(=O)Nc1ccccc1C(F)(F)F)Cc1ccco1, which Potency is on record?
Its Potency is inconclusive: 11.7 µM [inhibitor, single point].

Which Potency does the source give for O=c1c2c(-c3ccccc3)csc2nc2n1CCC2 here?
The Potency was “inactive”.

With CCOC(=O)c1ccc(NC(=O)N2CCN(Cc3ccccc3)CC2)cc1 as the compound, how does the Potency read?
Its Potency is “inactive”.

With COC(=O)C1(Cc2cc(-c3ccc([N+](=O)[O-])cc3)no2)CCN(C(=O)OC(C)(C)C)CC1 as the compound, how does the Potency read?
Its Potency is inconclusive: 18.5 µM [inhibitor, single point].

For COc1ccccc1CN(C)C(=O)C(c1ccccc1)c1ccccc1, which Potency is on record?
Its Potency is inconclusive: 10.4 µM [inhibitor, single point].

Which Potency does the source give for CC(=O)N(Cc1cccc(Br)c1)c1ccc(N2CCOCC2)c(Cl)c1 here?
The Potency was inconclusive: 18.5 µM [inhibitor, single point].

Which activity change, negative = inhibition does the source give for O=[N+]([O-])c1cccc(Cl)c1CSc1ccccn1 here?
Its activity change, negative = inhibition is inactive: 28% [at 5.75 µM].

For CCCCn1c(O)c(/C(CC)=N/N2CCCCC2c2cccnc2)c(=O)[nH]c1=S (stereo not given), which Potency is on record?
Its Potency is active: 2.94 µM.

With CC1CCCC(C)N1C(=O)c1cc(-c2cccs2)on1 (stereo not given) as the compound, how does the Potency read?
The Potency was “inactive”.

With CC(C)NC(=O)Nc1ccc(Br)cc1Cl as the compound, how does the Potency read?
Its Potency is inconclusive: 3.29 µM [inhibitor, single point].

For Cc1cc(C)n(C(=O)CCCCCCCCC(=O)n2nc(C)cc2C)n1, which Potency is on record?
Its Potency is inconclusive: 16.5 µM [inhibitor, partial curve, poor fit].

For Cc1cc(C(=O)NCCC2=CCCCC2)c(C)o1, which Potency is on record?
Its Potency is inconclusive: 18.5 µM [inhibitor, single point].

For O=C(CSc1ccc(-c2ccccn2)nn1)Nc1cccc(F)c1, which Potency is on record?
The Potency was inconclusive: 18.5 µM [inhibitor, single point].

Which Potency does the source give for CS(=O)(=O)c1ccc(NC(=O)c2cccc(S(=O)(=O)N3CCN(Cc4ccccc4)CC3)c2)cc1 here?
Its Potency is active: 9.28 µM.

For Cc1ccc(S(=O)(=O)N2CCN(Cc3cc(C(C)(C)C)ccc3O)CC2)cc1, which Potency is on record?
Its Potency is inconclusive: 13.1 µM [inhibitor, single point].

With Fc1ccc(OCc2nnc(-c3ccccc3Br)o2)c(Cl)c1 as the compound, how does the Potency read?
Its Potency is inconclusive: 18.5 µM [inhibitor, single point].

With CC(C)CNC(=O)/C(C#N)=C1\N=C(NC(=O)c2ccco2)c2ccccc21 as the compound, how does the Potency read?
Its Potency is inconclusive: 10.4 µM [inhibitor, partial curve].

With CC(C)Oc1cccc(C(=O)C2CCCN(Cc3cnc(N4CCOCC4)s3)C2)c1 (stereo not given) as the compound, how does the Potency read?
The Potency was “inactive”.

Which Potency does the source give for Cc1cc(CNC(=O)CC2C(=O)NCCN2CC(c2ccccc2)c2ccccc2)on1 (stereo not given) here?
The Potency was active: 14.7 µM.

With COc1ccc(OCCN(C)Cc2ccccc2)cc1 as the compound, how does the Potency read?
The Potency was “inactive”.

For Nc1nc(CCl)nc(Nc2ccc3ccccc3c2)n1, which Potency is on record?
Its Potency is active: 13.1 µM.

Which Potency does the source give for COc1ccccc1C(=O)NC(C)c1ccc(-n2ccnc2)cc1 (stereo not given) here?
Its Potency is inconclusive: 18.5 µM [inhibitor, single point].

With Cc1cccc(NC(=O)CNc2cc(C)ccc2C)c1 as the compound, how does the Potency read?
Its Potency is “inactive”.

With CCOc1ccc(NC(=O)CN(C)C(=O)c2cc([N+](=O)[O-])ccc2N2CCCCC2)cc1OCC as the compound, how does the Potency read?
The Potency was inconclusive: 10.4 µM [inhibitor, single point].

With Cc1c(C(=O)OCC(=O)NCC2CCCO2)cccc1[N+](=O)[O-] (stereo not given) as the compound, how does the Potency read?
Its Potency is “inactive”.

Which Potency does the source give for CCOc1ccc(S(=O)(=O)N(C)c2ccc(OCC(=O)NCc3ccco3)cc2)cc1 here?
Its Potency is inconclusive: 7.38 µM [inhibitor, partial curve, poor fit].

Which Potency does the source give for O=C(N/N=C/c1ccccn1)C12CC3CC(CC(C3)C1)C2 here?
Its Potency is inconclusive: 18.5 µM [inhibitor, single point].

For COc1cc(C(O)CO)ccc1OS(=O)(=O)O (stereo not given), which Potency is on record?
Its Potency is “inactive”.

For COc1cc(/C=C2\N=C(c3ccccc3)OC2=O)ccc1OCc1c(C)no[n+]1[O-], which Potency is on record?
Its Potency is inconclusive: 10.4 µM [inhibitor, single point].

Which Potency does the source give for CC(C)[C@H](N)c1cn([C@@H](CC(N)=O)C(=O)N2CCNCC2)nn1 here?
The Potency was inconclusive: 4.15 µM [inhibitor, single point].

Which Potency does the source give for O=C1NC2(CCCc3ccccc32)C(=O)N1Cc1nnc(-c2ccccc2Br)o1 (stereo not given) here?
The Potency was inconclusive: 2.94 µM [inhibitor, full curve].

With COc1ccc(C2C(=O)N(C3CCCCC3)CC(=O)N2C2CCCC2)cc1 (stereo not given) as the compound, how does the Potency read?
Its Potency is inconclusive: 11.7 µM [inhibitor, partial curve, poor fit].

For CC1CCC/C(=N\NC(=O)COc2ccccc2Cl)C1 (stereo not given), which Potency is on record?
The Potency was inconclusive: 18.5 µM [inhibitor, single point].

Which Potency does the source give for COc1ccc(N2CCN(C(=O)CNC(=O)c3ccc(C(C)(C)C)cc3)CC2)cc1 here?
The Potency was active: 4.65 µM.

For O=C(CSc1ccc(-c2ccccn2)nn1)NCc1ccc(F)cc1, which Potency is on record?
Its Potency is inconclusive: 18.5 µM [inhibitor, single point].

With Cc1c(C)c2c(OCC(=O)N[C@@H](Cc3ccccc3)C(=O)O)cc3c(c2oc1=O)CCC(C)(C)O3 as the compound, how does the Potency read?
The Potency was inconclusive: 0.522 µM [inhibitor, full curve, poor fit].

Which Potency does the source give for Cc1ccc(C2=NS(=O)(=O)N(C)C(C(=O)N3CCCCC3)=C2)cc1 here?
Its Potency is inconclusive: 10.4 µM [inhibitor, single point].

For CCOC(=O)Nc1cccc(Cl)c1C, which Potency is on record?
The Potency was “inactive”.

For COCCNc1oc(/C=C/c2ccc(F)cc2)nc1S(=O)(=O)c1ccccc1, which Potency is on record?
The Potency was inconclusive: 5.86 µM [inhibitor, partial curve].

With CC(NC(=O)Cn1nc(-c2ccccc2)c2ccccc2c1=O)c1ccccc1 (stereo not given) as the compound, how does the Potency read?
The Potency was inconclusive: 0.0738 µM [inhibitor, full curve, poor fit].

For Cc1csc2ncc(C(=O)Nc3ccccc3F)c(=O)n12, which Potency is on record?
Its Potency is “inactive”.

Which Potency does the source give for Cc1noc(C)c1CSc1nc2ccccc2nc1NS(=O)(=O)c1ccc(Cl)cc1 here?
Its Potency is inconclusive: 9.28 µM [inhibitor, partial curve].

For O=C(COc1ccc(Br)cc1)Nc1ccncc1, which Potency is on record?
Its Potency is inconclusive: 4.15 µM [inhibitor, full curve, poor fit].

Which Potency does the source give for CCCCOCCCNC(=O)CCCOc1ccccc1 here?
The Potency was inconclusive: 0.0083 µM [inhibitor, full curve, poor fit].

For O=C(N/N=C/c1coc2ccccc2c1=O)c1cccc([N+](=O)[O-])c1, which Potency is on record?
Its Potency is active: 5.86 µM.

For C=C[C@@H]1c2ccccc2N(S(=O)(=O)c2ccc(C)cc2)[C@H](c2ccccc2C(F)(F)F)C1(C#N)C#N, which Potency is on record?
The Potency was inconclusive: 2.33 µM [inhibitor, full curve, poor fit].

For CCC(CC)N=C1NS(=O)(=O)c2cc([N+](=O)[O-])ccc21, which Potency is on record?
The Potency was inconclusive: 18.5 µM [inhibitor, single point].

For Cc1ccc(C)c(NC(=O)CSc2nc3c(c(=O)n2C)SC(C)C3)c1 (stereo not given), which Potency is on record?
Its Potency is inconclusive: 11.7 µM [inhibitor, partial curve, poor fit].

Which Potency does the source give for O=C(Nc1cccc(Cl)c1)Nc1nnc(CC2=CCCCC2)s1 here?
Its Potency is inconclusive: 13.1 µM [inhibitor, single point].

Which Potency does the source give for Cc1c(C(=O)N2CCOCC2)sc(NC(=O)c2ccc3c(c2)OCO3)c1C#N here?
Its Potency is “inactive”.

Which Potency does the source give for CC(C)N(C(=O)Cn1cc(SCC(N)=O)c2ccccc21)C(C)C here?
Its Potency is inconclusive: 13.1 µM [inhibitor, single point].

With Cc1ccc(-n2c(SCC(=O)N3c4ccccc4Sc4ccccc43)nnc2-c2ccncc2)cc1 as the compound, how does the Potency read?
Its Potency is inconclusive: 4.15 µM [inhibitor, single point].

Which Potency does the source give for CCOc1ccc2nc(NC(=O)CSc3nnc(-c4ccncc4)n3CC3CCCO3)sc2c1 (stereo not given) here?
Its Potency is inconclusive: 18.5 µM [inhibitor, single point].

Which Potency does the source give for CN(C)c1ccc(/C=N/NC(=O)CCC(=O)NCc2ccccc2)cc1 here?
The Potency was “inactive”.

Which Potency does the source give for CC(C)N1CCN(Cc2cccc3nonc23)CC1CCO (stereo not given) here?
Its Potency is inconclusive: 18.5 µM [inhibitor, single point].

With N#Cc1c(-c2ccc(Cl)cc2)c2c([nH]c1=S)CCCC2 as the compound, how does the Potency read?
Its Potency is inconclusive: 10.4 µM [inhibitor, single point].

With CC(C)Cc1cc(C(=O)N2N=C(C(F)F)CC2(O)C(F)F)c2ccccc2n1 (stereo not given) as the compound, how does the Potency read?
The Potency was active: 6.57 µM.

With CCCn1c(=O)c2c(nc3n2CCCN3CCc2ccc(OC)c(OC)c2)n(C)c1=O as the compound, how does the Potency read?
The Potency was inconclusive: 1.17 µM [inhibitor, full curve].

Which Potency does the source give for O=C(Nc1ccc(OCc2ccccc2)cc1)c1cccnc1 here?
Its Potency is “inactive”.

Which Potency does the source give for COc1cccc(N2CCN(C(=O)c3cc4c(OC)c(OC)c(OC)cc4[nH]3)CC2)c1 here?
Its Potency is active: 7.38 µM.

With CC(C)(C)c1csc(NNC(=O)c2ccc(Br)cc2)n1 as the compound, how does the Potency read?
The Potency was inconclusive: 16.5 µM [inhibitor, single point].

Which Potency does the source give for CC(C)CCn1c(=O)c2sccc2n2c(CCCC(=O)N3CCN(c4ccccn4)CC3)nnc12 here?
The Potency was inconclusive: 13.1 µM [inhibitor, partial curve, poor fit].

With O=C(Nc1ccc(F)cc1F)c1ccccc1NC(=O)C1CC=CCC1C(=O)O (stereo not given) as the compound, how does the Potency read?
The Potency was inconclusive: 11.7 µM [inhibitor, single point].

Reference: PubChem BioAssay AID504834 (National Center for Advancing Translational Sciences (NCATS), 2011)
